Growth estimate data for 117 substances are collected here from the supplement of paper PMC5949888.

Most values lie at the floor of the assay. Slopes are relative: functional sequences can read slightly below zero. Some results are limits rather than exact numbers.

In this series the test system is Saccharomyces cerevisiae PS128 hsf1 delta, HSF1(1-493) fusion. Description: growth estimate (transactivation domain function in HSF1 fusion, heat-shock survival) (a.u. (slope of normalised read count over time)); higher = stronger growth at 37°C, i.e. more transactivation activity. The following applies: library: random library. The method, then: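 Random 60-nt DNA library encoding peptides of up to 20 aa, fused to the C-terminus of yeast HSF1 residues 1-493 (C-terminal TAD deleted) and expressed from the native HSF1 promoter on a CEN plasmid in hsf1-deleted S. cerevisiae PS128. Cells were selected at 37°C on -trp 5-FOA plates for 0, 2, 4, 6 and 8 days and amplicons were sequenced. Growth estimate is the slope of a robust linear fit of total-sum-normalised read counts (normalised to the first time point) over time, using at least 2 replicates. Sequences are classed functional (TAD activity) above a threshold of -0.13, set from stop-codon control sequences.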
Consider GWANNRRDLQ, for which the growth estimate is less than -0.25.

SFSRVDRSLHLSAQACSAPP: the growth estimate was less than -0.25.

In the case of FGVTRDMW, the growth estimate is less than -0.25.

SFWRPDS: the growth estimate is less than -0.25.

Regarding SLVFGPWW, the growth estimate was less than -0.25.

SVRLDIAVVLGHMFCLKGNH: the growth estimate was less than -0.25.

Regarding LSLVYGRRKRSIRKFTSLVV, the growth estimate was less than -0.25.

On to FHKGLIRNRWNGRFSRSVTT, for which the growth estimate is less than -0.25.

Turning to KLPETYLSGML, the growth estimate is less than -0.25.

Take LVLWYAYASRPHTLSCLGPR: the growth estimate is less than -0.25.

In the case of WQPRCSGT, the growth estimate is less than -0.25.

Turning to GLFFQ, the growth estimate was less than -0.25.

In the case of RYFTVVT, the growth estimate was less than -0.25.

On to QYGSHPKCLSVT, for which the growth estimate was less than -0.25.

As to EWALQFRI, the growth estimate is less than -0.25.

FTYTLVLLCST: the growth estimate is less than -0.25.

For NMSLHGCTIIWSLRIALSRV, the growth estimate was less than -0.25.

In the case of LMDDAPERVRGDRMCTCPFL, the growth estimate was less than -0.25.

On to HVRNPIRAVSKTCSSVVT, for which the growth estimate was less than -0.25.

As to ICVRDRRYSDLAPLQ, the growth estimate is less than -0.25.

With GVARVEFRPELFLSFLE, the growth estimate was less than -0.25.

As for YKVSCSRIC, the growth estimate is less than -0.25.

As to SCFASFWTGSVAASVLVSRV, the growth estimate is less than -0.25.

Consider ARGKFIAVSVEVTRCRGALI, for which the growth estimate is less than -0.25.

MQCAESLLGGTKTNGTRSSL: the growth estimate was -0.172.

As to VTLI, the growth estimate was less than -0.25.

As for NSRGRLCCGQSTRRPRALPC, the growth estimate was less than -0.25.

In the case of KTDGQVTNKLAALVQLWC, the growth estimate is less than -0.25.

As to SARTKFRP, the growth estimate is less than -0.25.

On to GQSCPARPSPVIEF, for which the growth estimate is less than -0.25.

Consider LGKRP, for which the growth estimate was less than -0.25.

For IIGQLRQD, the growth estimate was less than -0.25.

For the substance FWGLYN, the growth estimate is less than -0.25.

As for QWVCKHHSQLNHPTHFELRR, the growth estimate was less than -0.25.

Regarding MRGGIVRGR, the growth estimate is less than -0.25.

PLVRARVTRPSSLYGSSRRS: the growth estimate was less than -0.25.

Turning to KGYEVDTTKETGWLRDASAG, the growth estimate is less than -0.25.

With RIGL, the growth estimate is less than -0.25.

Turning to TTVNTEGAELGVDQHFPMYQ, the growth estimate was -0.0849.

In the case of LVLWIPANYLVFMVSGHAVR, the growth estimate was less than -0.25.

On to RGRSWSCS, for which the growth estimate is less than -0.25.

For the substance RSVFD, the growth estimate is less than -0.25.

In the case of LYTRNQRVSDTCIKRLEFQC, the growth estimate was less than -0.25.

With QGL, the growth estimate was less than -0.25.

In the case of TAF, the growth estimate is less than -0.25.

LLLSGP: the growth estimate is less than -0.25.

In the case of LKAYPSASGLRVRLLAPLKV, the growth estimate is less than -0.25.

For the substance IPKGSAPL, the growth estimate is less than -0.25.

As to VRTVIGFGAWRLSH, the growth estimate is less than -0.25.

As to PDLCRGSVLPDHGYGPL, the growth estimate was less than -0.25.

As for HRSDSINSR, the growth estimate was less than -0.25.

On to LCLVFSIPA, for which the growth estimate is less than -0.25.

As for LYATKTKQ, the growth estimate is less than -0.25.

With TALTSGTGTLCPSDIRGIVH, the growth estimate was less than -0.25.

Turning to GHY, the growth estimate is less than -0.25.

On to FSFGPSGRQNRGARVGSTSA, for which the growth estimate was less than -0.25.

For the substance RTYSMH, the growth estimate was less than -0.25.

For GIRRGRGKSIADRLYDLARR, the growth estimate was less than -0.25.

For GPQFIVAYGRSPGQKPHTEA, the growth estimate was less than -0.25.

For HEEA, the growth estimate is less than -0.25.

With AGGLPGRCRKKVR, the growth estimate is less than -0.25.

For TEHGIIIGRAALLSLPVT, the growth estimate was less than -0.25.

Turning to HLLKSLVA, the growth estimate is less than -0.25.

For LNREGNAEYVTELQERAMVL, the growth estimate was less than -0.25.

LPMVGDVPPYLRGSAIQNSA: the growth estimate is less than -0.25.

With PAMYPPTGTAPPSNFKWVFD, the growth estimate was -0.232.

Regarding VGVRRWMRWRRQ, the growth estimate is less than -0.25.

Regarding DTGNTDIARRGNRFQAGTLY, the growth estimate was less than -0.25.

Consider NPWIRKLPQGCNTRSIAYGG, for which the growth estimate is less than -0.25.

Turning to IAEKFWAS, the growth estimate was less than -0.25.

Consider LALYCKCGVGDAPGVLRAIV, for which the growth estimate is less than -0.25.

Take RPYGSGGLV: the growth estimate is less than -0.25.

Turning to STLPPGGILI, the growth estimate was less than -0.25.

Take CTCVIGDLYIRGSRNMFSSK: the growth estimate was less than -0.25.

With DESPKRGLHTDVCRFEGRS, the growth estimate was less than -0.25.

Take HNLRNWKGIY: the growth estimate is less than -0.25.

As for RIADFSPRLGGGGIVPGHDS, the growth estimate is less than -0.25.

For NRLKQKRL, the growth estimate is less than -0.25.

As to SHPQSRVK, the growth estimate was less than -0.25.

Consider SEPLP, for which the growth estimate is less than -0.25.

As for HYLIN, the growth estimate was less than -0.25.

On to VIHISPY, for which the growth estimate was less than -0.25.

Turning to WLSRKQKPQGPSAVASSPRI, the growth estimate was less than -0.25.

In the case of GQRVNASMNVCRTASRHLLS, the growth estimate is less than -0.25.

With EVGMGQLIRPVNL, the growth estimate was less than -0.25.

KWGRPIYNRGKRPDRLRLAL: the growth estimate is less than -0.25.

For FWMTF, the growth estimate is less than -0.25.

As to YPLWDGVGGACGRMRD, the growth estimate is less than -0.25.

As to RIMNRSNALCR, the growth estimate was less than -0.25.

For the substance ANLFHVCSLC, the growth estimate was less than -0.25.

As for GQITFKAGRSESCRGCDDMG, the growth estimate was less than -0.25.

Turning to VIRA, the growth estimate is less than -0.25.

Regarding WDDIIAGDPLWVLSPITTPM, the growth estimate was less than -0.25.

For the substance LTGKYQTGQASWFTCKSRSE, the growth estimate was less than -0.25.

Regarding LGLTSERLSSSRLGSDRPFL, the growth estimate is less than -0.25.

Turning to LMVAARTTLKDARGQSPVVV, the growth estimate was less than -0.25.

For the substance GGVAYIYT, the growth estimate is less than -0.25.

In the case of NFSIMPREQDPTAAYFRGTR, the growth estimate was less than -0.25.

As to NYSQNEEGGGSTAGARQAMG, the growth estimate was less than -0.25.

As to TGTLRPRP, the growth estimate was less than -0.25.

Regarding AVWFWFILVT, the growth estimate is less than -0.25.

With GTVE, the growth estimate was less than -0.25.

In the case of TGSEMDNFVDASISRARWRV, the growth estimate is less than -0.25.

TVWGKGRKHS: the growth estimate was less than -0.25.

For the substance ESGWAR, the growth estimate was less than -0.25.

RGRSVQLLLLIVVGGQNLNL: the growth estimate is less than -0.25.

Regarding MKLGRDFRTFSIGWYTQATA, the growth estimate is less than -0.25.

As for GFVTIRMLSQRITWLA, the growth estimate is less than -0.25.

As for STNAATVMPTADQVCIMTRA, the growth estimate is less than -0.25.

Turning to VSRSLATGQVRE, the growth estimate is less than -0.25.

For LTNQAKRFVPLDVGITGIPL, the growth estimate was less than -0.25.

As to CPQARGNGLGLGDAGSEPGQ, the growth estimate was less than -0.25.

For FHHPISHQLERNVHFSVEST, the growth estimate is less than -0.25.

For RQGPRSTAL, the growth estimate is less than -0.25.

Regarding PDFYRRWALEIANQLTNVA, the growth estimate was less than -0.25.

Consider SPLRENELTKRMRLPQFWVF, for which the growth estimate was less than -0.25.

As for RRVLQYG, the growth estimate is less than -0.25.
